For at least one compound, name, drawing or mass did not settle the structure.
Experiments:
[1] = Chemical stability of foam formulations by HPLC (assay % LC, total impurities); assay type: physicochemical; conditions: 3-months, 25° C. and 40° C.
From the text: The protocol used for determining the purity was a liquid chromatography (LC) method. The LC method is provided below.
This method is for the determination of Ruxolitinib Phosphate in foam formulations that contain Ruxolitinib Phosphate as active pharmaceutical ingredient (API). The method is suitable for the determination of active content in stability screening samples. The method can also be used to estimate the level of major degradants of Ruxolitinib Phosphate.
Foam formulations contain about 0.5% Ruxolitinib base (API added as Ruxolitinib Phosphate)
Weigh accurately about 500 mg of sample into a tared 25 mL volumetric flask.
Equilibrate the chromatographic system with starting mobile phase composition until a stable baseline is obtained. The following gradient (Table 12) at a flow rate of 1.0-1.5 mL/min is used: […]
Using the instrument conditions, equilibrate the chromatographic system with mobile phase. Record the chromatograms of Ruxolitinib Phosphate peak for the standard and sample solutions. The retention time of principal peak in the HPLC chromatogram of the sample should correspond with the retention time of the principal peak produced by Ruxolitinib Phosphate Standard Solution. The retention time difference between sample and standard should not be more than 5%.

alopecia areata = conditions: cited from earlier work

Question: Which “content relative to initial content at time zero” value [1] does the source give for `N#CC[C@H](C1CCCC1)n1cc(-c2ncnc3[nH]ccc23)cn1` [Ruxolitinib] here?
Answer: Its value is no more than 2%.

Question: And the impurities ([1]; method detection limit)?
Answer: The impurities was less than 0.05 % area.

Question: What about the “development of AA” value (alopecia areata; administered systemically at the time of grafting) of the same molecule?
Answer: Its value is “prevent the development of AA”.

Question: And the hair regrowth (alopecia areata; grafted mice with long-standing AA, topical once daily for 12 weeks, 0.5% ruxolitinib in 1:10 DMSO:Aquaphor)?
Answer: The hair regrowth was “complete hair regrowth”.
